Measurements reported in PubChem BioAssay AID602196 (INSERM, 2012).

Purpose: 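Genes whose knock-down alters cisplatin killing of lung cancer cells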
Cells: human A549 lung cancer cells
Reagent: siRNA pair against human genes
Duration: 48 h transfection before cisplatin; time from cisplatin to read-out not stated
Conditions: cisplatin at a dose killing half of control-siRNA cells; exact dose and duration not given
Measured: 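Shift in cisplatin death relative to control siRNA, from -50 (all cells die) to +50 (no cells die); siRNAs harmful on their own scored 0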
Reading the numbers: two-siRNA summed score (-2 to +2): higher = both siRNAs protect from cisplatin killing; -2 means both sensitise
Active means: 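siRNAs harmful alone (LDH or WST-1) get 0; others get +1 for less and -1 for more cisplatin killing; genes are active when the two siRNAs give the same sign, summing to ±2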
Calls: active = both siRNAs shift cisplatin killing the same way; inactive = no consistent shift, or siRNA harmful alone
Here is an unselected part of about 23,000 deposited reagents. Of all reagents, 455 (2%) are marked active. 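Active includes both protection and sensitisation; some change values fall well beyond the stated -50 to +50 range.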 A number with no mark means an inactive call. The numbers tell different reagents against one gene apart. Not all columns of the deposit are shown. Not stated in the record: the amount of reagent.

two-siRNA summed score (-2 to +2), by gene knocked down and reagent
OR2Y1: #1 0
CYP24A1: #1 0
OR5J2: #1 0
UBE2G1: #1 0
POLR2F: #1 0
CNST: #1 -1
LOC442721: #1 1
LOC388229: #1 1
GREM2: #1 0
SPDYA: #1 0
MYH4: #1 0
CDC42BPG: #1 1
LOC401640: #1 1
TAP2: #1 0
ARMCX1: #1 0
HSPB1: #1 -1
GRIN2D: #1 -1
LOC388789: #1 1
GP2: #1 -1
DOLPP1: #1 0
HOXB13: #1 0
GNB5: #1 -1
CFI: #1 -1
LYPD6B: #1 1
PON3: #1 0
TRERF1: #1 0
ENC1: #1 0
LINC00173: #1 0
TAF7L: #1 0
VPS9D1: #1 0
TNFRSF10C: #1 -1
LOC441198: #1 0
KCNK2: #1 0
IRAG2: #1 -2 (active)
FAHD1: #1 0
TSLIG3C: #1 0
LOC440750: #1 0
LOC401383: #1 1
CDYL: #1 0
TMPRSS11F: #1 2 (active)
STARD7-AS1: #1 0
LOC387856: #1 0
PLK2: #1 0
AAAS: #1 0
SEMA3C: #1 2 (active)
LINC00298: #1 1
ATP1A4: #1 0
LOC401622: #1 1
INPP4B: #1 0
MYB: #1 -1
KIF16B: #1 0; #2 0
CFAP61: #1 0
MSTO1: #1 0
BATF3: #1 0
MAD2L2: #1 0
HNRNPLL: #1 0
COL3A1: #1 1
OSMR: #1 0
DXO: #1 0
NELFB: #1 0
LRP8: #1 0
TRAPPC5: #1 0
CA4: #1 0
LOC440579: #1 1
PCP2: #1 0
FGF4: #1 0
SUGP1: #1 1
NUFIP2: #1 0
LOC441614: #1 0
ACAT1: #1 -1
BORCS6: #1 0
PVR: #1 0

8 of these entries, reformatted:
gene knocked down,reagent no.,two-siRNA summed score (-2 to +2)
TSLIG3C,1,0
LOC440750,1,0
LOC401383,1,1
CDYL,1,0
TMPRSS11F,1,2 (active)
STARD7-AS1,1,0
LOC387856,1,0
PLK2,1,0
